Where a chain is given by its changes, count along the chain named. These are yes or no findings as the source states them, for the method shown. Some binding calls cover weakened binding; strength is not graded here.

The values that follow come from patent publication US20230105029A1.

The assay deals with cynomolgus monkey IL4Rα-his protein (cynomolgus monkey). In words: SPR (Biacore), antibody captured, cyno IL4Rα-his flowed.

B1: chimeric antibody C2C1A1A1 (antibody, human IgG4 S228P, kappa, V domains shown)
VH: EVQLVESGGGLVQPGGSLKLSCAASGFTFSTYGMSWVRQTPDKRLELVATINSNGGSTSYPDSVKGRFTISRDNAKNTLYLQMSSLKSEDTAMFYCARFFRFRNAMDYWGQGTSVTVSS
VL: DIQMTQSPASLSASVGETVTITCRTSENIYSYLAWYQQKQGKSPQFLVYNAKTLAEGVPSRFSGSGSGTQFSLNINSLQSEDFGSYYCQHYYGPPTWTFGGGTKLEIKR
For B1, the binding entry is “binds”.

B2: huC2C1A1A1-V14 (antibody, human IgG4 S228P, kappa, V domains shown)
VH: EVQLVESGGGLVQPGGSLRLSCAASGFTFSTYGMSWVRQAPGKGLVWVATINSNGGSTSYPDSVKGRFTISRDNAKNTLYLQMNSLRAEDTAVYYCARFFRFRNAMDYWGQGTLVTVSS
VL: DIQMTQSPSSLSASVGQRVTITCRTSENIYSYLAWYQQKQGKPPRFLIYNAKTLAEGVPSRFSGSGSGTEFTLTITSLQAEDFGVYYCQHYYGPPTWTFGPGTKLEIKR
In the case of B2, the binding entry was “binds”.

B3: chimeric antibody B8G11F2B7G5E8 (antibody, human IgG4 S228P, kappa, V domains shown)
VH: EVQLQQSGADLVRPGASVKLSCTASGFNIKDTYMHWVKQRPEQGLEWVGRIDPTNGYTIYASKFQGKATITADTSSNTAYMQLSSLTSGDTAVYHCVSRRPWFAYWGQGTLVTVSA
VL: DILMTQTPLSLPVSLGAQASISCRSSQSIVHSNGNTYLEWYLQKPGQSPKLLIYKVTNRFSGVPDRFSGSGSGTDFTLKISRVEAEDLGIYYCFQGSHVPYTFGGGTKLEIKR
In the case of B3, the binding entry is “binds”.

B4: huB8G11F2B7G5E8-V4 (antibody, human IgG4 S228P, kappa, V domains shown)
VH: EVQLVQSGAEVKKPGATVKISCKASGFNIKDTYMHWVKQAPGKGLEWMGRIDPTNGYTIYASKFQGKATITADTSSNTAYMELSSLRSEDTAVYHCVSRRPWFAYWGQGTLVTVSS
VL: B3 VL with L3V, P12S, S14T, L15P, A17Q, Q18P, K50Q, L88V, I90V, G105Q
Consider B4, for which the binding entry is given as “binds”.

B5: huB8G11F2B7G5E8-V2 (antibody, human IgG4 S228P, kappa, V domains shown)
VH: B4 VH with A24V, M48V
VL: B3 VL with L3V, P12S, S14T, L15P, A17Q, Q18P, K50Q, L88V, I90V, G105Q
On to B5, for which the binding result is “binds”.

B6: huB8G11F2B7G5E8-V14 (antibody, human IgG4 S228P, kappa, V domains shown)
VH: B4 VH with A24V
VL: B3 VL with L3V, P12S, S14T, L15P, A17Q, Q18P, K50Q, L88V, I90V, G105Q
Regarding B6, the binding entry is listed as “binds”.
